Assay results as given in PubChem BioAssay AID2685 (National Center for Advancing Translational Sciences (NCATS), 2010).
The campaign covered roughly 320,000 compounds. About 2,100 (0.66%) were called active. This list was built around the results that the source calls inconclusive (neither active nor inactive); the mix of calls is not that of the screen. Calls follow the shape of the dose curve; as a rule, active = well fitted inhibition curve with a large enough effect in the signal ratio, with a control signal flat (not every such curve was filed as active); inconclusive = small, poorly fitted or top-dose-only effect, or effect the other way, or a change in a side signal; inactive = flat fitted curve, though single readings scatter; the % refers to the signal ratio. Potencies of inconclusive entries are doubtful fits and often do not repeat.

Test: qHTS Assay for Lipid Storage Modulators in Drosophila S3 Cells
Conditions: BODIPY lipid droplet fluorescence, 18-24 h, cells fed with added oleic acid; lipid storage change, negative = inhibition: at 46.1 µM (top of the series) unless noted
How it was run: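 Drosophila S3 cells loaded with oleic acid (400 uM, as added) and compounds at several concentrations; lipid droplets imaged by 488-nm laser-scanning cytometry, 500–530 nm intensity and object ratio to cell channel. Percent activity normalized to 20 uM Triacsin C.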
% is scaled to controls: 0 for no effect and ±100 for the full control effect; potency is read from the fitted curve at half-maximal effect.

Compound	lipid storage change, negative = inhibition	Potency
CN(C)c1ncc(S(=O)(=O)c2ccccc2)c(=O)[nH]1	inactive	
CCCc1cc(C(=O)Cc2ccccn2)c(O)cc1O	inconclusive: -80.5%	
CCCn1nnnc1NC(=O)COc1ccc(Cl)c(C)c1	inconclusive: 10.1%	
O=C(Cn1cnc2scc(-c3ccc(Br)cc3)c2c1=O)N1CCOCC1	inconclusive: -40.4% [cytotoxic] [at 0.369 µM]	
Cc1cccc(/N=C/c2c(O)cc(C)oc2=O)n1	inconclusive: -67.1%	
Cc1cc(F)ccc1S(=O)(=O)N1CCC2(CC1)OCCN2S(=O)(=O)c1cccs1	inconclusive: 26.8%	
Nc1ncc(Br)cc1S(=O)(=O)N1CCCCCC1	inconclusive: -15.3%	
CCOC(=O)C1=C(CNCc2ccc(F)cc2)NC(=O)NC1c1cccc([N+](=O)[O-])c1 (stereo unspecified)	inconclusive: 24.3%	
Cc1cc(NC(=O)COC(=O)CCS(=O)(=O)c2ccc(Cl)cc2)no1		inconclusive: 184 nM [activator, full curve]
O=[N+]([O-])c1ccccc1S(=O)(=O)NCCSCc1ccco1		inconclusive: 4610 nM [falling, single point]
Cn1ccnc1SCc1cn2ccccc2n1	inconclusive: 9.32%	
O=C(OCCN1CCOCC1)c1ccccc1		inconclusive: 16400 nM [activator, partial curve]
Cc1nc(Cl)sc1C(=O)O	inconclusive: 17.7%	
COC(=O)C(C)Oc1ccc(Oc2nc(Cl)ccc2Cl)cc1 (stereo unspecified)	inconclusive: -46.2%	
CC(OC(=O)C1=COCCO1)C(=O)Nc1ncc(Cl)cc1Cl (stereo unspecified)	inconclusive: 15.2%	
COc1cccc(C(=O)NN/C(C)=C/C(=O)C(F)(F)C(F)(F)C(F)(F)F)c1		inconclusive: 146 nM [falling, full curve, poor fit]
O=C(N/N=C/c1ccccn1)c1ccc(Cl)c(Cl)c1		inconclusive: 10000 nM [falling, partial curve, poor fit]
Cc1ccc(S(=O)(=O)N2CCN(C(=O)Cc3ccccc3)CC2)cc1C		inconclusive: 4.6 nM [activator, full curve, poor fit]
CCOC(=O)C1CCCN(C2CC(=O)N(c3cccc(C)c3)C2=O)C1 (stereo unspecified)		inconclusive: 461 nM [falling, full curve, poor fit]
COc1cc2ccccc2cc1C(=O)Nc1ccc(NC(=O)c2cccs2)cc1	inconclusive: -164%	
Cc1cc(C)c(S(=O)(=O)N2CCN(C)CC2)c(C)c1		inconclusive: 3260 nM [falling, full curve]
Cc1cc(N2C(=O)C(=O)/C(=C(/O)c3ccc(F)cc3)C2c2ccc(F)cc2)no1 (stereo unspecified)		inconclusive: 1160 nM [falling, single point]
O=C(CSc1ncccn1)NCc1cccs1	inconclusive: -18% [at 9.22 µM]	
CSc1nsc(SCC(=O)Nc2ccc(Cl)c(C(=O)O)c2)n1		active: 1460 nM
Cc1ccc(C(=O)N/C(=C\c2ccco2)C(=O)N2CCCCC2)cc1	inconclusive: -5.22%	
COc1ccccc1NC(=O)C1CCCN(C(=O)NCc2ccccc2)C1 (stereo unspecified)	inconclusive: -194%	

Record cards (already shown).
Cc1cc(C)c(S(=O)(=O)N2CCN(C)CC2)c(C)c1 is listed as Potency: inconclusive: 3260 nM [falling, full curve]
CN(C)c1ncc(S(=O)(=O)c2ccccc2)c(=O)[nH]1 is listed as lipid storage change, negative = inhibition: inactive
Cc1nc(Cl)sc1C(=O)O is listed as lipid storage change, negative = inhibition: inconclusive: 17.7%

(listing goes on)

Compound	lipid storage change, negative = inhibition	Potency
COCCN=C1Sc2nc3cc4c(cc3cc2CN1CC1CCCO1)OCO4 (stereo unspecified)	inconclusive: 30.9%	
CCOC(=O)c1c(NC(=O)OC)sc2c1CCC2	inconclusive: -4.32%	
CN(C)c1ccc(C(=O)NCc2ccc3c(c2)OCO3)cc1		inconclusive: 6510 nM [activator, partial curve, poor fit]
COc1ccc(/C=C/C(=O)O)cc1S(=O)(=O)NCC1CCCO1 (stereo unspecified)		inconclusive: 5.8 nM [falling, full curve, poor fit]
CCOC(=O)c1sc2nc(C(C)C)c3c(c2c1N)CC(C)(C)OC3	inconclusive: 5.01%	
CCCC(c1nnnn1CS(=O)(=O)c1ccc(C)cc1)N1CCN(C2CCCC2)CC1 (stereo unspecified)	inconclusive: 146%	
CCN1CCN(CCC(=O)Nc2ccc(Br)cc2)CC1	inconclusive: -22.4%	
CCOC(=O)c1ccc(NC(=O)CSc2nnc(-c3cccs3)n2C)cc1	inconclusive: 6.08%	
O=C(Nc1ccccc1N1CCOCC1)c1ccc2nc[nH]c2c1	inconclusive: -10.8%	
CCOCCCn1c(SCC(=O)Nc2ccccc2)nc2ccccc2c1=O		inconclusive: 29100 nM [falling, single point]
O=C(COC(=O)C1CCC1)NC(=O)c1ccccc1	inconclusive: 30.3%	
CN(c1ccccc1C(=O)O)S(C)(=O)=O	inconclusive: -4.73%	
CCN(C(=O)CN1CCN(c2ccccc2)CC1)c1c(N)n(Cc2ccccc2)c(=O)[nH]c1=O		active: 13000 nM
O=C(C1CCC(=O)N1C1CCCCC1)N1CCN(c2ccc(F)cc2)CC1 (stereo unspecified)	inconclusive: 18.6%	
Cc1ccccc1NC(=O)C1CCCN1S(=O)(=O)c1ccccc1C(F)(F)F (stereo unspecified)	inconclusive: -76.5%	
Cc1ccc(NC(=O)c2cc3c(=O)oc4ccccc4c3s2)nc1	inconclusive: 29.8%	
CN1CCCN(c2ncnc3scc(-c4ccc(F)cc4)c23)CC1	inconclusive: 5.22%	
COc1ccc(NC(=O)C2CCCN(S(=O)(=O)c3cccnc3)C2)cc1OC (stereo unspecified)		inconclusive: 8200 nM [activator, partial curve, poor fit]
CCOC(=O)C1=C(O)/C(=C\c2cccc(OC)c2)N=C1C		inconclusive: 29100 nM [falling, single point]
CC(=O)Nc1cccc(NC(=O)CSc2nc(C)c(C)c(C)c2C#N)c1		inconclusive: 326 nM [activator, full curve]
Cc1ccc(NC(=O)CN2CCc3ccccc3C2)cc1C	inconclusive: 282%	
Cc1cc(C)cc(N2CC(C)(C)C2=O)c1	inactive	
COc1ccc(-c2csc(NC(=O)CN3C(=O)NC4(CCCC4)C3=O)n2)cc1OC	inconclusive	
CN(CC(=O)Nc1ccc(N2CCOCC2)cc1)C(=O)CSc1ccccc1F		inconclusive: 4.6 nM [falling, full curve, poor fit]
CC(C)NC(=S)N=Nc1c(O)[nH]c2ccc([N+](=O)[O-])cc12	inconclusive: 6.06%	
